According to paper PMC8639890:
No constants are given. Whether binding was seen depends on the method and setting. In cells and extracts the contact can be indirect.

By UniProt entry, the sequences of proteins in these tests, tags left out.
UniProt P02340: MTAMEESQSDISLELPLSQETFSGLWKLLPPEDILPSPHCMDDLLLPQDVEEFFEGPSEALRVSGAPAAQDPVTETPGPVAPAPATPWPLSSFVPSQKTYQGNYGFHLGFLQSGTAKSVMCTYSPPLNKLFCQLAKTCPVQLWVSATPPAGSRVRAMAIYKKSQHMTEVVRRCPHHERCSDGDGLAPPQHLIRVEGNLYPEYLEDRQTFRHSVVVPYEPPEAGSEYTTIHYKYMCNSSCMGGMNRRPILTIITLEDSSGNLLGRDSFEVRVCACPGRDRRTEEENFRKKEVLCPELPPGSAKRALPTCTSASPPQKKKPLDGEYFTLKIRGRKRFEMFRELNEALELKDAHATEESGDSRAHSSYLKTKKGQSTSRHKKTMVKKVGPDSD

Target: p53 tumor suppressor (mouse (endogenous in Mefs)) (UniProt P02340)
Test: co-IP; Mef lysate (100 mM Tris-HCl pH 8, 100 mM NaCl, 1 mM EDTA, 1% NP-40, 1 mM DTT); 1 mg total protein incubated overnight at 4 °C with 1 μg anti-p53 (1C12) and protein G-Dynabeads; immunoblot with anti-p53 and anti-E4F1

B1: E4F1 mutant lacking its p53 interaction domain (Δ520–569) (protein, UniProt Q66K89)
chain: MEGAMAVRVTAAHTAEAQAEAGREAGEGAVAAVAAALAPSGFLGLPAPFSEEDEDDVHRCGRCQAEFTALEDFVQHKIQKACQRAPPEALPATPATTALLGQEVVPAAPGPEEPITVAHIVVEAASLAADISHASDLVGGGHIKEVIVAAEAELGDGEMAEAPGSPRQQGLGLAGEGEQAQVKLLVNKDGRYVCALCHKTFKTGSILKAHMVTHSSRKDHECKLCGASFRTKGSLIRHHRRHTDERPYKCSKCGKSFRESGALTRHLKSLTPCTEKIRFSVSKDVVVSKEDARAGSGAGAAGLGTATSSVTGEPIETSPVIHLVTDAKGTVIHEVHVQMQELSLGMKALAPEPPVSQELPCSSEGSRENLLHQAMQNSGIVLERAAGEEGALEPAPAAGSSPQPLAVAAPQLPVLEVQPLETQVASEASAVPRTHPCPQCSETFPTAATLEAHKRGHTGPRPFACAQCGKAFPKAYLLKKHQEVHVRERRFRCGDCGKLYKTIAHVRGHRRVHSDERPYTGEKPFKCYKCGRGFAEHGTLNRHLRTKGGCLLEVEELLVSEDSPAAATTVLTEDPHTVLVEFSSVVADTQEYIIEATADDAETSEATEIIEGTQTEVDSHIMKVVQQIVHQASAGHQIIVQNVTMDEETALGPEAAAADTITIATPESLTEQVAMTLASAISEGTVLAARAGTSGTEQATVTMVSSEDIEILEHAGELVIASPEGQLEVQTVIV
binding: no binding
